{"sequences": {"note": "Amino acid sequences for entries named in this document (tags omitted). Residues count along the entry.", "UniProt P18508, 39-466": "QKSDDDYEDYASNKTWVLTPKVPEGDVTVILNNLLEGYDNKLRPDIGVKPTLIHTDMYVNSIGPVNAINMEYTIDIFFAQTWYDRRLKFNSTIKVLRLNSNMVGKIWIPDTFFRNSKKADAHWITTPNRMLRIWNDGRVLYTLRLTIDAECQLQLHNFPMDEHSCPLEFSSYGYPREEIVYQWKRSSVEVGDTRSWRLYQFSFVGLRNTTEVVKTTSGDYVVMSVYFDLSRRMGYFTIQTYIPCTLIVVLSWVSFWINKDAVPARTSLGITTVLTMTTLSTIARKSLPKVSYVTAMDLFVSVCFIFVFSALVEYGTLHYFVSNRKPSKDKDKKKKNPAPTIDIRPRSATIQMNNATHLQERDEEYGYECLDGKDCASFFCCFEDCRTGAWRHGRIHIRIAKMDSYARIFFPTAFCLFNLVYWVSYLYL", "UniProt P62813, 28-455": "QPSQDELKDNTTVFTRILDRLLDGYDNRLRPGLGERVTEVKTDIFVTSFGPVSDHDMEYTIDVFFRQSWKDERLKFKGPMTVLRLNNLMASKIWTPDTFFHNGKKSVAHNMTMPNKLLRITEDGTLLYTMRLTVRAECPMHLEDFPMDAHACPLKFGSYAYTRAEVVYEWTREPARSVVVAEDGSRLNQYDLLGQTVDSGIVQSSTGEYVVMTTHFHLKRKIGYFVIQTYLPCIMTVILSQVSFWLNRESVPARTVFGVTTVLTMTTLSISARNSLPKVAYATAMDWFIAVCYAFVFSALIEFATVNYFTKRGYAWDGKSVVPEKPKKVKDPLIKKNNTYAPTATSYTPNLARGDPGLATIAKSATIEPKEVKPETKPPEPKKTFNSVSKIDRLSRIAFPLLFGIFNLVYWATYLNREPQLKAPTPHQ", "UniProt P63138, 25-474 limits assumed": "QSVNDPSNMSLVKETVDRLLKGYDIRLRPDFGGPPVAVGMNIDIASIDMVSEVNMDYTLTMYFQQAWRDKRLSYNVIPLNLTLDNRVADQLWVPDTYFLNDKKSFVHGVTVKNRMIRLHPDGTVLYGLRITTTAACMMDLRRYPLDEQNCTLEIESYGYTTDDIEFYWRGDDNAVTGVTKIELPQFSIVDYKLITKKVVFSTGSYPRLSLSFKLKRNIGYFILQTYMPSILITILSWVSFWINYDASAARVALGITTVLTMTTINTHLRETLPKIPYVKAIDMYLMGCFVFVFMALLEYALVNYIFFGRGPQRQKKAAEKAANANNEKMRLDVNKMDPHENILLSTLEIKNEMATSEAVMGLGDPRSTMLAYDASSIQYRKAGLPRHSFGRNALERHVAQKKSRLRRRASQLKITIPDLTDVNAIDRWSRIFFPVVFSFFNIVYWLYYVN"}, "source": "paper PMC7243081", "about": "(Slas Discovery, 2019)", "molecular_target": "α1, β2, and γ2s subunits of the rat GABAA receptors (HEK-GABA cells) (Rattus norvegicus, UniProt P18508+P62813+P63138)", "assay": "QP-DHM blind agonist screen", "type": "cell-based", "conditions": "Table 1, dose-response curves of validated hits", "data": [{"smiles": "CC(=O)[C@H]1CC[C@H]2[C@@H]3CC[C@H]4C[C@H](O)CC[C@]4(C)[C@H]3C(=O)C[C@]12C", "note": "[STOCK1N-51728, Alphaxalone]", "values": [{"measurement": "Amplitude (%)", "value": 60, "unit": "%"}, {"measurement": "Hill Coefficient", "value": "1.6–1.8"}]}]}
